From publication PMC5053661

Target: p53 (UniProt P04637)
Experiment: competition with a labelled probe
Conditions: excess unlabeled oligo abolished the N1 shift; EMSA: 100 ng recombinant p53, 100 nM annealed biotin probe; binding buffer, pH and temperature not given (ref 63); commercial protein

“TGACTGTCTGCCCATCTACCTGGCCCTACAT (double strand) [unlabeled hBD3 -1339 competitor]”: binds.

The exact form of at least one protein or probe is not confirmed.
